Data set [1] concerns the target endogenous NF-kB/RelA in TNF-stimulated A549 extracts (Homo sapiens) (UniProt Q04206). Description: pull-down. The following applies: protein in an extract, single-stranded DNA.
Data set [2] shares this target. Description: EMSA. The note with it: TNF-stimulated A549 nuclear extract; TNF-induced complexes competed by 100-fold WT but not mutant dsNF-kB; also competes dsNF-kB binding (FIG. 2A); protein in an extract; single-stranded DNA. Background: A gel shift assay detects complexes by their altered migration in electrophoresis.
Data set [3] concerns the target GST-RelA(1-313) (NF-kB p65, DNA binding and IkBa interactive domain) (UniProt Q04206). Description: competition with a labelled probe. The following applies: 100-fold excess unlabeled KB55 duplex; purified recombinant protein; protein details: GST.

Amino acid sequences for entries named in this document (tags omitted). Residues count along the entry.
UniProt Q04206, whole entry: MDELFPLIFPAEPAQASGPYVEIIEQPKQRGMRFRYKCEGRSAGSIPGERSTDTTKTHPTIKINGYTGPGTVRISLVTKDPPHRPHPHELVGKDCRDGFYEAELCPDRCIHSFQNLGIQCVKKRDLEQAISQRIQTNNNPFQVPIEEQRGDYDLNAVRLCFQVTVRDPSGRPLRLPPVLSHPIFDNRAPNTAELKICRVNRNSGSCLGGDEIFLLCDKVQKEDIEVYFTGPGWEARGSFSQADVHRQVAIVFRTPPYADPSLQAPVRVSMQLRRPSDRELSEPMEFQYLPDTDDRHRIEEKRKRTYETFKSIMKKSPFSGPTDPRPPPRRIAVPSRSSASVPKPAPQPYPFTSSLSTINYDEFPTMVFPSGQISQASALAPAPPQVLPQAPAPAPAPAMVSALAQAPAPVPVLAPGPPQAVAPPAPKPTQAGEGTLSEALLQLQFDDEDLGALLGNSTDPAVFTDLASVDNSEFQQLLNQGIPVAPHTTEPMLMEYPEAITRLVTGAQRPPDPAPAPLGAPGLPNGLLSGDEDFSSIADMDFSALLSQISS
UniProt Q04206, 1-313: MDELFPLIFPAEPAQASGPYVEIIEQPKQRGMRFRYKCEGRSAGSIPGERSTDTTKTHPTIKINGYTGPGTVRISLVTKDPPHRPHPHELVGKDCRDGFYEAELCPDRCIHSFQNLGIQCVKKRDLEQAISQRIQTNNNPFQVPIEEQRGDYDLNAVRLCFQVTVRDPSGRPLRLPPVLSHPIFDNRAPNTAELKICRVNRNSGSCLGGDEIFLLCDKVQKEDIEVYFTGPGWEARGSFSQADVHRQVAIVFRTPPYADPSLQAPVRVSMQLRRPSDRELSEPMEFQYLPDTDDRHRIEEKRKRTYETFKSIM

Experimental findings from patent publication US20120263651 are described below.

For at least one entry, the source does not settle the construct or the ends of the probe. For some of these results: Where cells or extracts were used, other partners may take part. For some of these results: Weaker means in comparison with the reference protein, sequence or condition of that experiment.

In the case of “GGGTAACCTTGAGTCACGAATTCAAACCTCTTCACTCCCCTCACTACTGCTTATAAAGGTACCCAACTTACAGCTTCTGG [P028A1, biotinylated]”, in data set [1] (no capture from CE, some capture from TNF-stimulated NE, label: biotin, variant of P028A1 nonspecific control), the binding result is listed as “binds more weakly”. On to “GGGTAACCTTGAGTCACGAATTCAAGCGGGACAGGAGAAACACGGCATGTCAGCGAAGGTACCCAACTTACAGCTTCTGG [P028F4]”, for which the binding result in data set [2] is “binds”. As for “GGGTAACCTTGAGTCACGAATTCAAGCGGGACAGGAGAAACACGGCATGTCAGCGAAGGTACCCAACTTACAGCTTCTGG [P028F4, 5'-biotinylated]”, the binding result in data set [1] (captures RelA from TNF-stimulated CE and NE, 20 nM aptamer, 4 C, label: 5'-biotin, variant of P028F4) is given as “binds”.

As for “ATACGGGAATTCCCG (double strand) [KB55 self-annealed duplex]”, in data set [3], the binding signal (% P028F4 binding remaining) is 8.
